The results in this text go back to PMC8752093.

By UniProt entry, the sequences of proteins in these tests, tags left out. Where a name states a change or a piece, a line headed by the entry shows the natural chain unless it says otherwise. Chains listed by the source or under a name are the forms on record and can include a tag or linker.
UniProt P35222: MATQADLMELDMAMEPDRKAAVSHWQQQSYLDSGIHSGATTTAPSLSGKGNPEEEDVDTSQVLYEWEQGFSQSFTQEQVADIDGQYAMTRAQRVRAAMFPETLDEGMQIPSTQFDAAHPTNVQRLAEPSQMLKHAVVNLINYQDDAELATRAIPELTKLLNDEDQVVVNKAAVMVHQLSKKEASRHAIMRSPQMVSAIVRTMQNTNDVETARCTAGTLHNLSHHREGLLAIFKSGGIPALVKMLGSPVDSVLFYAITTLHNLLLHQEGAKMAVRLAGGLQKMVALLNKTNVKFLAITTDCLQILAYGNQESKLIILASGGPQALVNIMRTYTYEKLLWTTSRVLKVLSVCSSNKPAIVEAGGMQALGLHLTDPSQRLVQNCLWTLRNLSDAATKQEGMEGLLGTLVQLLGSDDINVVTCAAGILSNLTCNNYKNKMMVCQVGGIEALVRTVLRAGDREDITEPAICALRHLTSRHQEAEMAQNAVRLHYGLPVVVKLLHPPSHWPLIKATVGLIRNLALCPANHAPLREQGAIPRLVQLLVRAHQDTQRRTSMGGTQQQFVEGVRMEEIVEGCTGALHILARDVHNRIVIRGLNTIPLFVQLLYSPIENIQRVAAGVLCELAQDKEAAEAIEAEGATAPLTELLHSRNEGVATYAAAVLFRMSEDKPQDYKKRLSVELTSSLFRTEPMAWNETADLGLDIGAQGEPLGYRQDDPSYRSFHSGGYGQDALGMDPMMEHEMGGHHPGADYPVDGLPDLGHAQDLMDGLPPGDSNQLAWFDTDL
mutant β-catenin-Cherry (endogenous ∆Ser45 β-catenin allele tagged C-terminally with V5, GS linker and mCherry2) (P35222, form named): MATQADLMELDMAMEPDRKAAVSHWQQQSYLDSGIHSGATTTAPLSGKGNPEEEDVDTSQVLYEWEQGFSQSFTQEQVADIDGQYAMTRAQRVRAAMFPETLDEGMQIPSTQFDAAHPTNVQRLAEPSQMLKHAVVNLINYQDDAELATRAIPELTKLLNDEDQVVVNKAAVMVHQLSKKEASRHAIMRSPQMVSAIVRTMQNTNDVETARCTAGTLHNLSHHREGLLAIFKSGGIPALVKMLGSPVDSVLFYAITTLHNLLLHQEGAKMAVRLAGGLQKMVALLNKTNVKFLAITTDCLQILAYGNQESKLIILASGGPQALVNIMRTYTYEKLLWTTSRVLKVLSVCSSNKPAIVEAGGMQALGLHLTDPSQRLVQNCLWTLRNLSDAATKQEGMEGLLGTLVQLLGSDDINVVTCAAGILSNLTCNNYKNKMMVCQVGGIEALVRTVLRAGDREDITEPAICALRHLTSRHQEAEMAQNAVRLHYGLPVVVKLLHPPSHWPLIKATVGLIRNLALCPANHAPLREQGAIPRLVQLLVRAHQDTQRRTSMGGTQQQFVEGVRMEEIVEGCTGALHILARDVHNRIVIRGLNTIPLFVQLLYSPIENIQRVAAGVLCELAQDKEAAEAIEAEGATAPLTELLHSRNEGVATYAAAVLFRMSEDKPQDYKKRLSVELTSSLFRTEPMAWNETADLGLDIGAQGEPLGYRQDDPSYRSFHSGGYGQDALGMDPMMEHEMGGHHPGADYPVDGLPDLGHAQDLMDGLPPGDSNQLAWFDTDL
UniProt O15169: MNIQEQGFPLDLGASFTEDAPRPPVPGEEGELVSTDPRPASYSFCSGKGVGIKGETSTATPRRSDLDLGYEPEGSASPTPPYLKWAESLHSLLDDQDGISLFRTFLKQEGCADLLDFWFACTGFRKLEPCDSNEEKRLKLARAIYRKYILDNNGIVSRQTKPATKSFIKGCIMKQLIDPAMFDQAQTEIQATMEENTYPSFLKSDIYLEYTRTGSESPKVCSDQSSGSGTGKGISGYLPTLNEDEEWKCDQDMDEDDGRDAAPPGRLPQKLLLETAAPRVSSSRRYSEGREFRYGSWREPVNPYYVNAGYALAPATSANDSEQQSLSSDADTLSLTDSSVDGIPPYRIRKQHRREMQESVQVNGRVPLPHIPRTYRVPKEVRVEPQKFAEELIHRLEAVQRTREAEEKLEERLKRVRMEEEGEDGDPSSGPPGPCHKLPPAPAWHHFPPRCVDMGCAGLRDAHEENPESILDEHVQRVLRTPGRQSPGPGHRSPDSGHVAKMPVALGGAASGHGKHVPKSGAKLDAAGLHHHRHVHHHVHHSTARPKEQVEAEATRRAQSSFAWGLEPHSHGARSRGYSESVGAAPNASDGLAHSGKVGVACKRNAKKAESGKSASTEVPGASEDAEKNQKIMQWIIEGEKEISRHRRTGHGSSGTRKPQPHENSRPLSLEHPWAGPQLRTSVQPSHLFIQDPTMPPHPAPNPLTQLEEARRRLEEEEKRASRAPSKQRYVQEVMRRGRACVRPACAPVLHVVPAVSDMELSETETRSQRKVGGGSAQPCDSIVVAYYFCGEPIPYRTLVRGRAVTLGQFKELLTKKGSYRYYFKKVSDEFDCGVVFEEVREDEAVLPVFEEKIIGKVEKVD

The target of assay [1] is wild-type β-catenin-Clover (endogenous wild-type β-catenin allele tagged C-terminally with FLAG, GS linker and mClover3) (human (endogenous in HCT116)) (UniProt P35222). The experiment in a line: co-IP; Clover- and Cherry-tagged β-catenin precipitated from HCT116 lysate with GFP- or RFP-Trap magnetic beads/agarose, 1 hr at 4°C; β-catenin, Axin1 and GSK3β detected by Western blot. (In general: A western blot detects proteins with antibodies after separation by electrophoresis.)

Assay [2] deals with mutant β-catenin-Cherry (endogenous ∆Ser45 β-catenin allele tagged C-terminally with V5, GS linker and mCherry2) (human (endogenous in HCT116)) (UniProt P35222). The assay is described as above.
Assay [3] has as its target wild-type β-catenin-Clover (endogenous wild-type β-catenin allele tagged C-terminally with FLAG, GS linker and mClover3) (human (endogenous in HCT116)) (UniProt P35222). The assay can be described thus: two-colour fluorescence cross-correlation spectroscopy (FCS); live HCT116 clone #37 cells, cytosol and nucleus, 120 s traces in two colour channels, 37°C and 5% CO2.

These are yes or no findings as the source states them, for the method shown. For part of these data: Binding seen in cells or lysates may run through a third protein. Some entries that bind do so weakly or less than the wild type.

With “axis inhibition protein 1 (Axin1) (from UniProt O15169 1-862)”, the binding result in assay [1] and in assay [2] was “binds” in each case.

For the substance “mutant β-catenin-Cherry (endogenous ∆Ser45 β-catenin allele tagged C-terminally with V5, GS linker and mCherry2) (from UniProt P35222 1-781)”, the binding entry in assay [3] was “no binding”.
